# Measurements from PubChem BioAssay AID493014 (National Center for Advancing Translational Sciences (NCATS), 2011).
# Among all 340,000 compounds or so, about 170 (0.05%) were called active. Inconclusive results, whose numbers are uncertain, are shown with a selection of clear calls. Calls come from the whole dose curve; as a rule, active = well fitted inhibition curve with a large enough effect in the signal ratio, with a control signal flat (not every such curve was filed as active); inconclusive = small, poorly fitted or top-dose-only effect, or effect the other way, or a change in a side signal; inactive = flat fitted curve, though single readings scatter; the % refers to the signal ratio. Potencies of inconclusive entries are doubtful fits and often do not repeat.
# Assay: qHTS Assay to Find Inhibitors of Chronic Active B-Cell Receptor Signaling;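 for activity change, negative = inhibition: plate controls were basal doxycycline-induced cells for no effect and cells given 10 µM MG132 for full effect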
# Details: ABC-DLBCL IkBa-CBG/CBR reporter, luminescence ratio (green luciferase fused to IkBa over red control in TMD8 lymphoma cells), 4 h; activity change, negative = inhibition: at 46.1 µM (top of the series)
# Text: NIH Molecular Libraries Probe Production Network [MLPCN] NIH Chemical Genomics Center [NCGC] MLPCN Grant: 1 R03 DA031086-01A1 PI Name: Dr. R. Eric Davis NCGC Assay Overview: Diffuse large B-cell lymphoma (DLBCL) is the most common category of non-Hodgkin lymphoma, with ~20,000 new cases per year in the United States. DLBCL should be regarded as a collection of different neoplasms. Microarray gene expression analysis has defined two principal types of DLBCL, named for their similarity to normal B cell stages or activation states: a germinal center B-cell (GCB) type, and an activated B-cell (ABC) type. In ABC-DLBCL, a constitutive high-level activity of the NF-kappaB family of transcription factors has been observed (1) and NF-kappaB target genes are more highly expressed in ABC primary tumors than in GCB tumors. Functional studies have shown a constitutive high-level activity of the IkappaB (inhibitor of kappa-B) kinase (IKK) complex. […] Further analysis of DLBCL primary tumors for NF-kappaB target gene expression imply that although CARD11 is required for constitutive IKK activity in all ABC-DLBCL lines, mutations in CARD11 may be the root cause of IKK activation only in lines or tumors with such mutations. In other words, CARD11 mutations may explain NF-kappaB activation in only 10% of ABC-DLBCL cases. […] This process has been termed 'chronic active BCR signaling' (CABS). The goal of this screen is to find small-molecule inhibitors of the CABS pathway found in ABC-DLBCL lines using a cell-based assay that measures IkappaBalpa stability, which has already been extensively validated in the OCI-Ly3 line (PubChem AID:445; REF: 4). […] The assay uses green (CBG68) and red (CBR) emitting beetle luciferases [Chroma-GloTM developed by Promega Corp.] where the green luciferase is fused to IkappaBalpha and the red luciferase is present in its native state. Both luciferase genes are stably present in the TMD8 human ABC DLBCL cell line, but their expression is under the control of tetracycline-inducible promoters. Following the addition of doxycycline to induce expression of the luciferases, the green luminescence in control cultures rises only slowly because the CBG fusion partner IkappaBalpha is targeted by IKK activity for rapid degradation. In contrast, green luminescence rises rapidly in the presence of proteasome inhibitors or IKK inhibitors. The rise in red luminescence of CBR is not affected by proteasome or IKK inhibitors, and serves as normalization for cell number and nonspecific effects. Compounds were screened as a concentration-titration series that ranged from 46 uM to 3 nM.
# NCGC Assay Protocol Summary: Cells were seeded in 1536-well plates at 5000 cells/4uL in IMDM medium containing 0.5% FBS, w/o phenol red, 1% penicillin/streptomycin. Then, 23 nL of compounds or DMSO were delivered to each well using a pin tool. One uL 20ng/ml doxycycline was then dispensed into white solid 1536-well plates and the plates were incubated at 37C/5% C02 in a cell incubator for 4 hrs. Then 4 uL luminescent substrate mix (in-house prepared: 150 mM Tris-Cl, pH 7.6, 3 mM MgCl2, 1% Triton X-100, 5 mM DTT, 0.2 mM CoA, 0.15 mM ATP, 5 mM D-luciferin, final concentrations) was added to each well. The plate was incubated at r.t. for 10-15 min. The plates were measured on a ViewLux plate reader for green luminescence (540/20 nm filter) and red luminescence (618/8 nm filter). The green and red luminescent signals were corrected for red and green luminescence filter overlap using previously determined filter calibration constants (determined using the procedure outlined in the Promega Technical Manual; REF 4). The %Activity was determined from the ratio of corrected green/red luminescent values. MG132 were used as control. […] Red luminescent %Activity was normalized to the difference between red luminesence in basal cells (0%Activity) and zero luminescence (-100% Activity). […]
# Potency is the fitted concentration of half-maximal effect.
SMILES,"activity change, negative = inhibition",Potency
COc1ccc(C(=O)n2nc(-c3ccco3)nc2N)cc1OC,inconclusive: 16%,–
O=C(Nc1ccc2ccccc2c1)c1cccc([N+](=O)[O-])c1,–,"inconclusive: 22.4 µM [falling, partial curve, poor fit]"
COc1cc(O)c(C(CC(=O)N2CCOCC2)c2cc(OC)c(OC)c(OC)c2)c(OC)c1 (stereo not given),inactive: -5.47%,–
CCCc1ccc(OCc2ccc(C(=O)N3CCSCC3)o2)cc1,–,"inconclusive: 35.5 µM [falling, single point]"
CC(C)(C)c1ccc(OCCCNC2CCCC2)cc1,inconclusive: -22.7%,–
COc1ccc(NC(=O)C2CCN(S(=O)(=O)c3c(C)noc3C)CC2)cc1,inactive: 1.3%,–
CCC1CCCCN1CCCNC(=O)c1ccc(CS(=O)(=O)Cc2ccccc2F)o1 (stereo not given),inconclusive: 13.7%,–
Cc1occc1C(=O)N/N=C/c1c(O)ccc2ccccc12,–,"inconclusive: 3.16 µM [falling, partial curve, poor fit]"
C/C(=N\NC(=O)c1cccs1)c1ccc2c(c1)OCO2,–,"inconclusive: 25.1 µM [falling, single point]"
O=S(=O)(c1ccc2nc(-c3ccccc3)[nH]c2c1)N1CCN(c2ccc(Cl)cc2)CC1,inactive: -0.21%,–
Cc1ccc(OCC(=O)N(C)CC(=O)Nc2cccc(F)c2)cc1,inactive: 0.768%,–
Cc1ccc2c(c1C)NC(=O)CC(c1ccccc1O)=N2,inconclusive: 8.57%,–
COCCN1CCN(C(=O)c2ccc3nc(Cc4ccc(OC)c(OC)c4)oc3c2)CC1,inactive: -8.56%,–
CS(=O)(=O)N1CCN(c2ccccc2NC(=O)c2cc3ccccc3o2)CC1,–,"inconclusive: 5.01 µM [rising, partial curve, poor fit]"
COC(=O)CSc1nnc(CNc2ccc(OC)cc2)n1C,inconclusive: -6.2%,–
CN(Cc1nc(-c2ccccc2)no1)C1CCOCC1,inconclusive: 1.51%,–
CC(OC(=O)c1ccc(O)cc1)C(=O)Nc1nc(-c2ccccc2)cs1 (stereo not given),inconclusive: 14.8%,–
CC(C)N1CCC(NC(=O)NC2CCCCC2)CC1,inactive: 3.35%,–
CCOc1ccc2nc(NS(=O)(=O)c3ccc(NC(C)=O)cc3)sc2c1,inconclusive: 19.2%,–
C=C(C)Cn1c(SCC)nc2ccccc2c1=O,inactive: 21%,–
CCN(CC)c1ccc(N2C(=NC(=O)C3CC3)SC3CS(=O)(=O)CC32)cc1 (stereo not given),inactive: -1.12%,–
Oc1oc(-c2ccccc2Br)nc1C=Nc1ccc(Br)cn1,–,"inconclusive: 6.31 µM [falling, partial curve]"
O=C(Nc1ncc2c(n1)-c1ccccc1OC2)c1ccccc1Cl,–,"inconclusive: 1.58 µM [falling, full curve]"
Cc1ccc(C(=O)N2CCCC2)cc1Br,inconclusive: 8.27%,–
O=C1Cc2ccccc2Sc2ccc(Cl)cc21,inconclusive: -1.78%,–
O=C(NCc1ccccc1Cl)C(=O)NCC1CCCN1S(=O)(=O)c1cccs1 (stereo not given),–,"inconclusive: 18.4 µM [falling, partial curve, poor fit]"
CCC(C)c1ccc(NC(=S)N2CCN(c3ccccn3)CC2)cc1 (stereo not given),inconclusive: -0.43%,–
O=[N+]([O-])c1cccc(NC(=S)N2CCN(c3ccccn3)CC2)c1,inconclusive: 13.1%,–

SMILES,"activity change, negative = inhibition",Potency
Cc1ccc(C)c(C(=O)CSc2nc(N)cc(=O)[nH]2)c1,inconclusive: 0.987%,–
CCn1cc(C(=O)N[C@@H](CC(C)C)C(=O)NCCCn2ccnc2)c(=O)c2cc3c(cc21)OCO3,–,"inconclusive: 17.8 µM [falling, single point]"
Cc1nnc(NC(=O)CCC(=O)N2CCN(CCOc3cccc4ccccc34)CC2)s1,inconclusive: -27.4%,–
O=C1c2ccc([N+](=O)[O-])cc2C(=O)N1c1ccc(Cl)cn1,–,"inconclusive: 17.8 µM [falling, single point]"
CC(NC(=O)COC(=O)c1cn(-c2ccccc2)nc1-c1cccs1)c1ccccc1 (stereo not given),–,"inconclusive: 18.4 µM [rising, single point]"
CCOc1ccc(/C=C2\SC(=S)N(N3C(=O)C4CC4C3=O)C2=O)cc1 (stereo not given),inactive: 1.08%,–
CCc1ccc(NC2=NC(C(=O)c3ccccc3)CC(=O)N2)cc1 (stereo not given),inconclusive: -1.33%,–
CCc1ccc(-c2ccc(SCc3ccccn3)nn2)cc1,inactive: 5.32%,–
O=C(O)CCN=Cc1c(O)c2ccccc2oc1=O,inconclusive: -26.1%,–
O=C1CCc2ccccc2O1,inactive: -0.439%,–
N#CCSc1nnc2ccc3ccccc3n12,inconclusive: 7.67%,–
Clc1ccc(-c2nnc(N3CCCC3)nn2)cc1,inconclusive: 4.57%,–
CCCCN(CC)CCNC(=O)c1cc2c(=O)n(C)c3ccccc3c2n1C,inconclusive: -15.9%,–
CC(C)(C)NC(=S)N/N=C/c1cc(Br)c(O)c(Br)c1,–,"inconclusive: 31.6 µM [falling, single point]"
CN(C)c1ccc(C(=S)NC2CCCCC2)cc1,inconclusive: -1.44%,–
COc1ccc2nc(SCc3cccc(C)c3)nc(C)c2c1,inconclusive: 14.6%,–
Cc1ccc(S(=O)(=O)/C(C#N)=C/c2ccccc2OCc2ccccc2)cc1,–,"inconclusive: 20.6 µM [falling, partial curve, poor fit]"
COc1ccc(C(=O)Nc2nc3cc4c(cc3s2)OCCO4)c(OC)c1,inconclusive: 4.88%,–
CN(CC(=O)Nc1cccc(F)c1)C(=O)c1csc2c1CCCC2,inactive: 1.01%,–
Cc1ccc(C(=O)Nc2ccc(Cl)cc2C)c(Cl)c1,inconclusive: 5.14%,–
COc1ccc(/C=C2\SC(c3ccc(C)cc3)=NC2=O)cc1OC,inconclusive: -21.6%,–
CCOC(=O)NC(=O)/C(C#N)=C\Nc1ccc(Cl)cc1Cl,inconclusive: 5.86%,–
O=C(NCC(=O)N1CCN(S(=O)(=O)c2ccccc2F)CC1)c1ccc(Br)o1,inactive: -0.429%,–
CC(C)C(c1nnnn1Cc1ccccc1)N(Cc1ccco1)Cc1cccs1 (stereo not given),inconclusive: 7.72%,–
CC(C)C(=O)NC(=S)Nc1c(Cl)ccc2nsnc12,inactive: -1.82%,–
O=C(CN1C=NS(=O)(=O)c2ccccc21)Nc1ccccc1F,–,"inconclusive: 0.891 µM [falling, full curve]"
COc1ccccc1Oc1ccc2c(c1)C(=O)N(c1ccc(C)cc1)C2=O,inconclusive: 2.38%,–

# Structural class: the compounds so far containing two or more sulfur atoms
SMILES,"activity change, negative = inhibition",Potency
CCOc1ccc2nc(NS(=O)(=O)c3ccc(NC(C)=O)cc3)sc2c1,inconclusive: 19.2%,–
CCN(CC)c1ccc(N2C(=NC(=O)C3CC3)SC3CS(=O)(=O)CC32)cc1 (stereo not given),inactive: -1.12%,–
O=C(NCc1ccccc1Cl)C(=O)NCC1CCCN1S(=O)(=O)c1cccs1 (stereo not given),–,"inconclusive: 18.4 µM [falling, partial curve, poor fit]"
CCOc1ccc(/C=C2\SC(=S)N(N3C(=O)C4CC4C3=O)C2=O)cc1 (stereo not given),inactive: 1.08%,–
CC(C)C(=O)NC(=S)Nc1c(Cl)ccc2nsnc12,inactive: -1.82%,–
